PubChem BioAssay AID1224826 | NIAID, 2016
In all, the deposit lists about 17,000 reagents; this is a random part of them. Over the whole deposit, about 1,110 (6.6%) got an active call. 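Active means lowered or raised reporter signal; replicate intensities are raw and not normalised per plate.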 Entries without a mark were called inactive. Reagents against one gene are numbered here.

Assay: 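Knock-downs that raise or lower Tnf reporter signal after endotoxin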 (primary screen)
System: RAW264.7 G9 macrophages from mouse bearing reporters for p65 (GFP) and the Tnf promoter (mCherry)
Reagent: siRNA pool against mouse genes, 100 nM
Time to read-out: 16 h of LPS stimulation, after 2 days of siRNA transfection
Challenge: bacterial lipopolysaccharide (Salmonella minnesota R595), 10 ng/ml
Detection: 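Imaged Tnf reporter mCherry in nuclei, minus background, normalised per plate to the median and expressed as robust z-scores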
Reading the numbers: Tnf reporter robust z-score: higher = stronger Tnf promoter reporter signal after LPS; Tnf reporter intensity: higher = stronger Tnf promoter reporter signal
Call rule: 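a well counts as active at a score of -1.3 or below (Tlr4 knock-down control median) or above 3 (raised signal); controls and wells holding fewer than 50 cells are excluded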
Calls: active = Tnf reporter clearly lowered or raised; inactive = no clear change in Tnf reporter

gene,reagent,Tnf reporter robust z-score,fewer than 50 cells in well,"Tnf reporter intensity, replicate 1","Tnf reporter intensity, replicate 2"
Fundc2b (FUN14 domain containing 2B),1,-0.6,enough cells in well,121,132
Alas1 (aminolevulinic acid synthase 1),1,0.87,enough cells in well,263,246
"Atp6v1c1 (ATPase, H+ transporting, lysosomal V1 subunit C1)",1,0.44,enough cells in well,216,170
"Mybpc2 (myosin binding protein C, fast-type)",1,-0.07,enough cells in well,217,106
Galnt9 (polypeptide N-acetylgalactosaminyltransferase 9),1,0.58,enough cells in well,280,145
Vmn1r35 (vomeronasal 1 receptor 35),1,0.03,enough cells in well,109,99.3
Tmem127 (transmembrane protein 127),1,-0.64,enough cells in well,114,48
Hdac3 (histone deacetylase 3),1,-0.8,enough cells in well,172,139
"Pla2g4b (phospholipase A2, group IVB (cytosolic))",1,-0.19,enough cells in well,205,202
Gabra6 (gamma-aminobutyric acid type A receptor subunit alpha 6),1,0.03,enough cells in well,264,234
Rnf214 (ring finger protein 214),1,-0.84,enough cells in well,125,133
Or10ak7 (olfactory receptor family 10 subfamily AK member 7),1,1.83,enough cells in well,268,212
Or10ak7 (olfactory receptor family 10 subfamily AK member 7),2,-0.62,enough cells in well,141,96.5
Lce1g (late cornified envelope 1G),1,-0.7,enough cells in well,207,57.1
"Actc1 (actin, alpha, cardiac muscle 1)",1,0.74,enough cells in well,168,261
"Ppp1r3f (protein phosphatase 1, regulatory subunit 3F)",1,-1.14,enough cells in well,80.4,79.5
Trpm5,1,0.11,enough cells in well,262,211
Scpep1 (serine carboxypeptidase 1),1,-0.56,enough cells in well,109,81.5
Pde7b (phosphodiesterase 7B),1,0.73,enough cells in well,278,245
Sh3bgr (SH3-binding domain glutamic acid-rich protein),1,,fewer than 50 cells per well; well left out of calls,49.7,51.5
"Il6ra (interleukin 6 receptor, alpha)",1,-0.33,enough cells in well,210,136
Pwp2 (PWP2 periodic tryptophan protein homolog (yeast)),1,-1.51 (active),enough cells in well,67.3,59.8
Vmn1r19 (vomeronasal 1 receptor 19),1,2.32,enough cells in well,165,197
Tmem60 (transmembrane protein 60),1,1.44,enough cells in well,262,359
Rbm25 (RNA binding motif protein 25),1,0.28,enough cells in well,310,65.5
Rbm25 (RNA binding motif protein 25),2,0.38,enough cells in well,279,75.4
Apoa2 (apolipoprotein A-II),1,0.52,enough cells in well,185,214
Tmem107 (transmembrane protein 107),1,-0.54,enough cells in well,223,60.6
Pa2g4 (proliferation-associated 2G4),1,-0.91,enough cells in well,186,111
Ca14 (carbonic anhydrase 14),1,-0.72,enough cells in well,118,143
Pak5 (p21 (RAC1) activated kinase 5),1,,fewer than 50 cells per well; well left out of calls,147,122
"Bora (bora, aurora kinase A activator)",1,0.15,enough cells in well,192,196
"Clcn5 (chloride channel, voltage-sensitive 5)",1,0.29,enough cells in well,244,254
Haspin (histone H3 associated protein kinase),1,0.61,enough cells in well,229,197
Ddx4 (DEAD box helicase 4),1,0.04,enough cells in well,193,161
Stk38 (serine/threonine kinase 38),1,1.14,enough cells in well,241,155
Cpa6 (carboxypeptidase A6),1,1.5,enough cells in well,260,213
Stac2 (SH3 and cysteine rich domain 2),1,0.73,enough cells in well,196,221
Orai2 (ORAI calcium release-activated calcium modulator 2),1,,fewer than 50 cells per well; well left out of calls,157,82.4
Zng1 (Zn regulated GTPase metalloprotein activator 1),1,0.28,enough cells in well,205,251
Coxfa4 (cytochrome c oxidase associated subunit FA4),1,-1.45 (active),enough cells in well,115,68.9
"Rexo4 (REX4, 3'-5' exonuclease)",1,1.34,enough cells in well,379,223
Pabir2 (PABIR family member 2),1,-0.68,enough cells in well,135,53.3
Or6c38 (olfactory receptor family 6 subfamily C member 38),1,0.03,enough cells in well,120,92.6
Dnajc6 (DnaJ heat shock protein family (Hsp40) member C6),1,,fewer than 50 cells per well; well left out of calls,94.4,49.4
Skap2 (src family associated phosphoprotein 2),1,0.16,enough cells in well,334,211
Mfap3 (microfibrillar-associated protein 3),1,-0.3,enough cells in well,229,61.7
Meis3 (Meis homeobox 3),1,-1.24,enough cells in well,124,66.3
Hmgcs2 (3-hydroxy-3-methylglutaryl-Coenzyme A synthase 2),1,0.59,enough cells in well,284,226
"Tas2r136 (taste receptor, type 2, member 136)",1,0.81,enough cells in well,148,90

Limited to “Tnf reporter intensity, replicate 1” (9 entries from above):
Tmem127 (transmembrane protein 127) = 114
Hdac3 (histone deacetylase 3) = 172
Pla2g4b (phospholipase A2, group IVB (cytosolic)) = 205
Gabra6 (gamma-aminobutyric acid type A receptor subunit alpha 6) = 264
Rnf214 (ring finger protein 214) = 125
Or10ak7 (olfactory receptor family 10 subfamily AK member 7) #1 = 268
Or10ak7 (olfactory receptor family 10 subfamily AK member 7) #2 = 141
Lce1g (late cornified envelope 1G) = 207
Actc1 (actin, alpha, cardiac muscle 1) = 168

Next results:
gene,reagent,Tnf reporter robust z-score,fewer than 50 cells in well,"Tnf reporter intensity, replicate 1","Tnf reporter intensity, replicate 2"
Ttc3 (tetratricopeptide repeat domain 3),1,-0.16,enough cells in well,101,94.1
Fsd1l (fibronectin type III and SPRY domain containing 1-like),1,0.53,enough cells in well,184,199
Insm1 (insulinoma-associated 1),1,0.47,enough cells in well,258,188
Sh2d7 (SH2 domain containing 7),1,,fewer than 50 cells per well; well left out of calls,125,65.5
Proser2 (proline and serine rich 2),1,-1.03,enough cells in well,146,66.5
Dnajc5 (DnaJ heat shock protein family (Hsp40) member C5),1,-0.08,enough cells in well,249,68.1
Rpia (ribose 5-phosphate isomerase A),1,0.36,enough cells in well,160,126
Elp5 (elongator acetyltransferase complex subunit 5),1,0.98,enough cells in well,430,260
"Mdh2 (malate dehydrogenase 2, NAD (mitochondrial))",1,-0.66,enough cells in well,129,129
Or14c41 (olfactory receptor family 14 subfamily C member 41),1,-1.29,enough cells in well,108,63.5
Slc25a21,1,1.25,enough cells in well,126,163
"Jund (jun D proto-oncogene, AP-1 transcription factor subunit)",1,0.29,enough cells in well,226,192
Selenos (selenoprotein S),1,1.98,enough cells in well,400,280
Fut2b (fucosyltransferase 2B),1,-0.09,enough cells in well,98.8,26.5
Gpr85 (G protein-coupled receptor 85),1,-0.21,enough cells in well,183,304
Traf1 (TNF receptor-associated factor 1),1,-0.15,enough cells in well,207,231
Snx29 (sorting nexin 29),1,-0.12,enough cells in well,168,118
"Tlx1 (T cell leukemia, homeobox 1)",1,0.88,enough cells in well,246,209
Ncoa2 (nuclear receptor coactivator 2),1,-0.03,enough cells in well,279,188
Repin1 (replication initiator 1),1,-0.45,enough cells in well,115,102
Ccdc136 (coiled-coil domain containing 136),1,0.57,enough cells in well,219,277
Pdia4 (protein disulfide isomerase associated 4),1,-0.95,enough cells in well,94.5,124
Fbxl15 (F-box and leucine-rich repeat protein 15),1,0.77,enough cells in well,309,174
"Abca16 (ATP-binding cassette, sub-family A member 16)",1,1.41,enough cells in well,343,239
Gfi1b (growth factor independent 1B),1,-1.07,enough cells in well,196,122
